Results on 2 molecules are retold here after publication doi:10.1101/720029.

This assay has as its target eGFP-Rab28 T26N (zebrafish) (UniProt Q7ZVW0). Kind of assay: affinity purification with mass spectrometry.

Results are given in words; binding and its absence hold for the method and conditions named. In cells and extracts the contact can be indirect. Here binding means that the protein was enriched with, or labelled near, the bait; the list need not be complete.

B1: Erlin1 (protein, UniProt Q58EG2 1-342)
chain: MAHVGAVVAAMAGLMAILLHSSIHKIEEGHLAVYYRGGALLTSPNGPGYHIMLPFITSYRSVQTTLQTDEIKNVPCGTSGGVMIYFDRIEVVNMLIPTSVVDIVRNYTADYDKTLIFNKIHHELNQFCSVHTLQEVYIELFDIIDENLKTALQKDLNCMAPGLTIQAVRVTKPKIPEAIRRNYELMEAEKTRLLITVQTQKVVEKEAETERKKAIIEAQKVAQVAEIQFQQKVMEKETEKKISEIEDAAFLAREKARADAEYYTAAKFAEANTLKLTPEYLQLMKYQAIAANSKIYFGQDIPNMFVDSSASRPAAGESEQLESLSMRESLKKASKPKASEGH
For B1, the binding result is given as “binds”.

B2: Erlin2 (protein, UniProt A3QK16 1-331)
chain: MTLGAVASLILAIGGAAVFSALHKIEEGHVGVYYRGGALLTATSGPGFHLMLPFITTFKSVQTTLQTDEVKNVPCGTGGGVMIYFDRIEVVNYLVPSAVYGIVRNFTADYDKALIFNKVHHELNQFCSVHTLQDVYIGLFDQIDENLKLTLQEDLTSMAPGLIIQAVRVTKPNIPESIRRNYELMESERTKLLIAAQTQKVVEKEAETERKKAVIEAEKVAQVAEIKFGQKVMEKETEKKISQIEDSAYLARQKAKADAEFYSAQRAAEANKLKLTPEYLQLMKFKAIAANSKIYFGSEIPHMFMDSGPGSSSSAASKAIDVLSEGMLDLE
As for B2, the binding result is given as “binds”.
